PubChem BioAssay AID504808 | Drosophila RNAi Screening Center | 2011

Screen: 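Fly genes required to hold E2F transcription in check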 (primary screen)
Cell system: Drosophila S2 cells
Reagent: long dsRNA against Drosophila genes
Measurement: 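Dual luciferase plate measurements; E2F-specific signal taken as firefly over Renilla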
Direction: E2F firefly: higher = more E2F reporter activity; Renilla normaliser: higher = more normaliser reporter signal
Call rule: 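Called active if the normalised E2F reporter went up by over 50%; the cutoff is arbitrary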
In all, the deposit lists about 21,000 reagents; this is a random part of those that have a named target and a result. Of all reagents, 18 (0.084%) are marked active. 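Raw counts without plate normalisation, one of two replicates; the ratio scores behind the calls were not deposited.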 A number with no mark means an inactive call. Reagents against one gene are numbered here. Names joined by + are all predicted targets of the reagent. Not stated in the record: the amount of reagent, the time to read-out.

| target gene | dsRNA no. | E2F firefly, rep 1 | Renilla normaliser, rep 1 |
| --- | --- | --- | --- |
| hpRNA:CR32207 | 1 | 87534 | 3915 |
| CG42342 | 1 | 87178 | 2730 |
| CG42342 | 2 | 41850 | 3388 |
| CG42342 | 3 | 1.17e5 | 5741 |
| CG42342 | 4 | 1.19e5 | 5664 |
| CG42342 | 5 | 1.13e5 | 5795 |
| mtd | 1 | 75182 | 3327 |
| mtd | 2 | 78611 | 3689 |
| mtd | 3 | 1.30e5 | 5141 |
| CG11000 | 1 | 1.38e5 | 6250 |
| Kyat | 1 | 1.26e5 | 6283 |
| CG14439 | 1 | 1.09e5 | 6030 |
| CG4218 | 1 | 1.01e5 | 4743 |
| sbr | 1 | 85340 | 4437 |
| sbr | 2 | 59135 | 4871 |
| CG11413 + CG4622 | 1 | 1.01e5 | 4097 |
| Rcd7 | 1 | 1.18e5 | 6508 |
| CG34269 | 1 | 1.21e5 | 3681 |
| CG8664 | 1 | 1.56e5 | 5390 |
| Damm | 1 | 93662 | 4204 |
| Ilp7 | 1 | 98798 | 5133 |
| CG5618 | 1 | 76747 | 3263 |
| CG13295 | 1 | 79266 | 3410 |
| Or85f | 1 | 1.33e5 | 6157 |
| Tbc1d8-9 | 1 | 86799 | 3536 |
| CG31436 | 1 | 1.14e5 | 5630 |
| Mkp + CG34140 | 1 | 73223 | 3370 |
| CG1635 | 1 | 1936 | 968 |
| CG13331 | 1 | 1.04e5 | 4329 |
| CG6184 | 1 | 1.34e5 | 8120 |

Part of the list above, set out differently.
CG14439
- E2F firefly, rep 1: 1.09e5
- Renilla normaliser, rep 1: 6030

CG4218
- E2F firefly, rep 1: 1.01e5
- Renilla normaliser, rep 1: 4743

sbr #1
- E2F firefly, rep 1: 85340
- Renilla normaliser, rep 1: 4437

sbr #2
- E2F firefly, rep 1: 59135
- Renilla normaliser, rep 1: 4871

Further entries follow:
| target gene | dsRNA no. | E2F firefly, rep 1 | Renilla normaliser, rep 1 |
| --- | --- | --- | --- |
| PolG1 | 1 | 88839 | 3815 |
| GCC88 | 1 | 1.38e5 | 6381 |
| rpk | 1 | 85085 | 3373 |
| Ak1 | 1 | 1.38e5 | 7430 |
| ppk24 | 1 | 1.16e5 | 5681 |
| MYPT-75D | 1 | 73616 | 3960 |
| CG32590 | 1 | 2.49e5 | 6340 |
| CG5762 | 1 | 58121 | 3150 |
| CG14947 | 1 | 97911 | 4392 |
| coro | 1 | 70699 | 3301 |
| CG7202 | 1 | 1.39e5 | 6298 |
| kuz | 1 | 1.03e5 | 4772 |
| CG7453 | 1 | 1.50e5 | 5816 |
| CG6171 | 1 | 87535 | 3687 |
| Mst33A | 1 | 1.46e5 | 5218 |
| CG4622 | 1 | 74528 | 3783 |
| ng2 | 1 | 1.12e5 | 5430 |
| CG9168 | 1 | 1.05e5 | 4464 |
| Hsp70Aa + Hsp70Bb + Hsp70Ba + 3 more | 1 | 94480 | 5023 |
| CSN3 | 1 | 82633 | 5080 |
| m | 1 | 66378 | 4795 |
| CG6262 | 1 | 1.10e5 | 4432 |
| Membrin | 1 | 1.12e5 | 3972 |
| eIF3i | 1 | 71491 | 4295 |
| CR15280 | 1 | 1.07e5 | 4552 |
| Chi | 1 | 78309 | 3403 |
| Glut1 | 1 | 1.23e5 | 4005 |
| Glut1 | 2 | 70615 | 3339 |
